# Library screen at single concentrations

The chains behind the UniProt entries cited, without tags or fusion partners.
UniProt P9WNZ1, whole entry: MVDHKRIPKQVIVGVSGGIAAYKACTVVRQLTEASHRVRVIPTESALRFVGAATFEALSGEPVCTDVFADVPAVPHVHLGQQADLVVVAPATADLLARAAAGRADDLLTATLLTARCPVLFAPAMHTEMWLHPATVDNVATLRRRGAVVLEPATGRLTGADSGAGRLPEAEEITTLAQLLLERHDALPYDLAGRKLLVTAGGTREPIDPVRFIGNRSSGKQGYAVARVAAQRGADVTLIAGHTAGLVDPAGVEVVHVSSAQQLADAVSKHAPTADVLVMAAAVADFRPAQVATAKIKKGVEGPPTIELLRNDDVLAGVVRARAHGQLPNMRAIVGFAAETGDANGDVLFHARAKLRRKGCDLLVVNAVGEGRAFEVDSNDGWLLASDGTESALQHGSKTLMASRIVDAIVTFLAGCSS

Values are the deposited “Percent Effect”, in %.
The controls that fix the scale are not given in the record; negative values are as filed.
The compounds are a random part of those screened.
Two or more numbers in one place are separate tests of the same structure; such repeats can differ widely.

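Coenzyme A biosynthesis protein CoaBC, Mycobacterium tuberculosis (UniProt P9WNZ1). Enzyme assay of CoaBC with a phosphate dye (Biomol Green) read at 650 nm. Tested at 30 µM. Higher reads as stronger inhibition, judged from the few compounds that gave an IC50. Most strong results did not repeat in a second test. Of about 67,000 compounds tested this way, about 40 (0.06%) reached 50% or more in at least one test.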

With Cc1cc(N2CCC(c3ncc[nH]3)CC2)nc(N)n1 the screen gave 5.291% and 22.82%. Result for O=C(NCC1(c2ccc(F)cc2)CCC1)N1CCC2(CCOCC2)C1 was -2.917%. CCOC(=O)C(C)NC(=O)CCc1ccc(F)cc1 (centres undefined) read 2.269%. Cc1cc(C)nc(N2CC[C@@]3(O)CCN(S(=O)(=O)N(C)C)C[C@H]3C2)n1 read 6.436%. CCC(=O)N1CCN(S(=O)(=O)c2cccc(F)c2)[C@H]2CS(=O)(=O)C[C@H]21 read -2%.

With Cc1nnc2n1CCN(C(C(=O)NC1CC1)c1ccccc1)C2 (centres undefined) the screen gave 2.591%. With Cc1cnc(C(=O)N2C[C@H]3CC[C@@H]2CN(S(=O)(=O)N(C)C)C3)cn1 the screen gave 1.353%. Result for CCN(CC)CCN(C)Cc1cn(C)nc1-c1ccc2c(c1)OCCO2 was 7.522%. Result for CS(=O)(=O)NC1CCCN(Cc2ccccn2)C1 (centres undefined) was -2.297%. For Cc1ccccc1CSc1ncc(Br)c(C(=O)O)n1 the result was -3.874%.

O=C(NC1CCC1)c1c2c(N3CCCC3)ncnc2n2ccccc12 gave 4.622%. Result for Cc1cn[nH]c1C1COCCN1Cc1ccsc1 (centres undefined) was -1.453%. For CC(C)c1nnc(CN2C(=O)OC[C@@H]2C(C)C)o1 the result was 2.723%. With Cc1ncsc1CCC(=O)N1CCCC[C@H](N(C)C)C1 the screen gave 8.333%. Cc1nc(C)n(CC2CCCN2CC(=O)Nc2c(C)n[nH]c2C)n1 (centres undefined) gave 3.581%.

Cc1noc(C2CCN(Cn3cc(Br)cn3)CC2)n1 read 3.396%. CNC(=O)c1ccc(C(=O)N2CCCC2c2c(C)nn(C)c2C)cn1 (centres undefined) read 0.3736%. Cc1ccccc1OCC(=O)N1CCOC2(CNCCOC2)C1 (centres undefined) read 2.292%. Result for CC1CCN(C(=O)c2cccc3ncccc23)CC1 was 2.738%. CCN(Cc1cccnc1)C1CCN(c2ccccc2)C1=O (centres undefined) gave 1.656%.

Result for Cn1nc2c(cc1=O)CN(CCCOc1ccc(C#N)cc1)CC2 was 1.297%. Cn1cc(Cl)cc1C(=O)N1CCN(CCc2cccs2)CC1 read 5.882%. Result for O=C(c1cccs1)N1CCCC(c2cc(C(F)F)n3ncnc3n2)C1 (centres undefined) was 1.961%. For Cc1nnc([C@@]23CCO[C@@H]2CCN(Cc2nccs2)C3)o1 the result was 6.559%. For Cc1cc(-c2cnn(CCNC(=O)c3snnc3C)c2C2CC2)on1 the result was -0.7264%.

Result for CCOC(=O)N1CCC(NC(=O)c2cccc(C3CCCNC3)c2)CC1 (centres undefined) was 5.897%. O=C(C1=CCCC1)N1CCC[C@]2(C[C@@H](OCc3ccccn3)CO2)C1 gave 7.097%. For COc1ccccc1N1CCC(N2CCOC(C(F)(F)F)C2)CC1 (centres undefined) the result was -5.055%. Cc1ccc(S(=O)(=O)NC(=O)CCc2ccco2)cc1N(C)C read 11.41%. For Cc1ccc(C(=O)N2CCCN(Cc3cccs3)CC2)n1C the result was 10.23%.

COC(=O)C1CCN(C(=O)c2ccc(C)c(NS(C)(=O)=O)c2)CC1 read -4.386%. C/C(NC(=O)c1cccs1)=C1\C(=O)C[C@@H]2[C@H]1C2(C)C read -1.446%. Result for NS(=O)(=O)N1CCc2ccc(NC(=O)Cc3ccc(F)cc3)cc21 was 4.478%.

Some entries from above, unchanged:

{"compound": "CCN(Cc1cccnc1)C1CCN(c2ccccc2)C1=O", "stereo": "centres undefined", "Percent Effect": 1.656}
{"compound": "CCOC(=O)C(C)NC(=O)CCc1ccc(F)cc1", "stereo": "centres undefined", "Percent Effect": 2.269}
{"compound": "O=C(C1=CCCC1)N1CCC[C@]2(C[C@@H](OCc3ccccn3)CO2)C1", "Percent Effect": 7.097}

From ChEMBL document CHEMBL3988442, “University of Dundee, Small-Polar-MMV Screening Library” (2021).